Experimental data reported in the supplement of paper PMC12823440, “Inhibitors supercharge kinase turnover through native proteolytic circuits” (Nature, 2025).
Counter-ions that a name gives are not always drawn. This is one part of the list. The calls rarely recur for the same compound in another form.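 In K562 cells expressing nanoluciferase-fused kinases, luminescence was recorded at 4 h intervals between 2 and 18 h, normalized as percent of control with DMSO at 100% and a positive control at 0%. A significant (2 sigma) signal drop marks a time point as decreased. The authors' rule for a hit is not shown and takes in more than the number of time points.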

Amino acid sequences for entries named in this document (tags omitted). A change or cut given only in a name is not applied to a line headed by its entry.
UniProt Q9BUB5: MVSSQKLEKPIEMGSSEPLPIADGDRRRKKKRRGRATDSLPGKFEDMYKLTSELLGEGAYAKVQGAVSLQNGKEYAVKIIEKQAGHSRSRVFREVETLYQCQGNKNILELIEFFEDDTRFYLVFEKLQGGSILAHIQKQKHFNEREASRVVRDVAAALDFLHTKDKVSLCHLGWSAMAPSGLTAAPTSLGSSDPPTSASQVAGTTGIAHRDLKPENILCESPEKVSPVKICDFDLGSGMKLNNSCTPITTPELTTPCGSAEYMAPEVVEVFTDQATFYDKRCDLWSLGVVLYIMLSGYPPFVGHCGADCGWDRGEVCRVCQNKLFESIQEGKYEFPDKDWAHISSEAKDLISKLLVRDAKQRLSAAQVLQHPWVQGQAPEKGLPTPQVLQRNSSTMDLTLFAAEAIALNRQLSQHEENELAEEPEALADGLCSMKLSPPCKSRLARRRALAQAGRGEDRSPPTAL

target: MKNK1 (UniProt Q9BUB5); assay: number of time points (of 5) at which kinase-Nluc abundance scored as decreased, DMSO-normalised (count); higher = more persistent destabilization; conditions: K562; 2-18 h

Compound | number of time points
FC(F)(c1ccc2ncccc2c1)c1nnc2ccc(-c3ccncc3)nn12 (10 µM) | 0
COc1ccc(-c2ccc3c(N4CCOCC4)nc(N4C[C@@H](C)O[C@@H](C)C4)nc3n2)cc1CO (2.5 µM) | 0
C=CC(=O)Nc1ccc(CN2C(=O)N(c3cc(OC)cc(OC)c3)Cc3cnc(Nc4ccc(N5CCN(C)CC5)cc4)nc32)cc1 (2.5 µM) | 0
O=C1NC(=O)/C(=C\c2cccc(C(F)(F)F)c2)S1 (2.5 µM) | 0
CN(C)C(=O)Cn1cc(-c2ccc(-c3cncc4ccccc34)cc2)cn1 (10 µM) | 0
COc1ccccc1-c1cc(Nc2cccc(CS(N)(=O)=O)c2)ncn1 (10 µM) | 0
C[C@@H]1COCCN1c1cc(C2([S@@](C)(=N)=O)CC2)nc(-c2ccnc3[nH]ccc23)n1 [(S)-Ceralasertib] (10 µM) | 0
c1cc(-c2c[nH]c3nccc(N4CCC[C@@]5(CCCCN5)C4)c23)ncn1 (10 µM) | 0
Cc1ccc2nc(NCCN)c3ncc(C)n3c2c1 (2.5 µM) | 0
C=CC(=O)Nc1cccc(Nc2nc(Nc3ccc(NC4CN(CCF)C4)cc3OC)ncc2C(F)(F)F)c1 (2.5 µM) | 0
COc1ncc(Cl)cc1S(=O)(=O)Nc1ccc(F)c(C#Cc2cnc(N)nc2)c1F (2.5 µM) | 0
C=CC(=O)Nc1cccc(Nc2nc(Nc3ccc(N4CCN(C(C)=O)CC4)cc3OC)ncc2C(F)(F)F)c1 [Rociletinib hydrobromide] (10 µM) | 0
C[C@@]1(c2ncncc2F)NC(=O)c2cc(-c3cn[nH]c3)ccc21 (10 µM) | 0

Rewritten with tabs: 2 of the compounds above.
Compound	number of time points
C=CC(=O)Nc1ccc(CN2C(=O)N(c3cc(OC)cc(OC)c3)Cc3cnc(Nc4ccc(N5CCN(C)CC5)cc4)nc32)cc1 (2.5 µM)	0
O=C1NC(=O)/C(=C\c2cccc(C(F)(F)F)c2)S1 (2.5 µM)	0
